This passage reports binding results from PMC7387728.

The target of assay [1] is PD-L1 (human (endogenous in SGC7901)) (UniProt Q9NZQ7). Nature of the assay: co-IP; PD-L1 precipitated with antibodies or control IgG from SGC7901 lysates pre-cleared with protein G-agarose beads; immunoprecipitates washed four times in lysis buffer; Western blot with anti-p-EGFR and anti-EGFR; cells treated with TRAIL (100 ng/ml). (In western blotting, separated proteins are transferred to a membrane and probed.)

For assay [2] the target is unchanged. The experiment in a line: proximity ligation; Duolink in situ PLA in SGC7901 cells after TRAIL treatment (100 ng/ml); primary antibodies for PD-L1 and p-EGFR; confocal fluorescence microscopy.

No constants are given. Whether binding was seen depends on the method and setting. Binding seen in cells or lysates may run through a third protein. Some binding calls cover weakened binding; strength is not graded here.

For the substance “epidermal growth factor receptor (EGFR) (from UniProt P00533 25-1210)”, the binding result in assay [1] was “binds”.

With “phosphorylated EGFR (p-EGFR) (from UniProt P00533 25-1210) (receptor)”, the binding entry in assay [1] and in assay [2] was “binds” each time.
